For test [1], the target named is T1, NBR1 (human (endogenous in Eca-109/PECC)) (UniProt Q14596).
T1 sequence: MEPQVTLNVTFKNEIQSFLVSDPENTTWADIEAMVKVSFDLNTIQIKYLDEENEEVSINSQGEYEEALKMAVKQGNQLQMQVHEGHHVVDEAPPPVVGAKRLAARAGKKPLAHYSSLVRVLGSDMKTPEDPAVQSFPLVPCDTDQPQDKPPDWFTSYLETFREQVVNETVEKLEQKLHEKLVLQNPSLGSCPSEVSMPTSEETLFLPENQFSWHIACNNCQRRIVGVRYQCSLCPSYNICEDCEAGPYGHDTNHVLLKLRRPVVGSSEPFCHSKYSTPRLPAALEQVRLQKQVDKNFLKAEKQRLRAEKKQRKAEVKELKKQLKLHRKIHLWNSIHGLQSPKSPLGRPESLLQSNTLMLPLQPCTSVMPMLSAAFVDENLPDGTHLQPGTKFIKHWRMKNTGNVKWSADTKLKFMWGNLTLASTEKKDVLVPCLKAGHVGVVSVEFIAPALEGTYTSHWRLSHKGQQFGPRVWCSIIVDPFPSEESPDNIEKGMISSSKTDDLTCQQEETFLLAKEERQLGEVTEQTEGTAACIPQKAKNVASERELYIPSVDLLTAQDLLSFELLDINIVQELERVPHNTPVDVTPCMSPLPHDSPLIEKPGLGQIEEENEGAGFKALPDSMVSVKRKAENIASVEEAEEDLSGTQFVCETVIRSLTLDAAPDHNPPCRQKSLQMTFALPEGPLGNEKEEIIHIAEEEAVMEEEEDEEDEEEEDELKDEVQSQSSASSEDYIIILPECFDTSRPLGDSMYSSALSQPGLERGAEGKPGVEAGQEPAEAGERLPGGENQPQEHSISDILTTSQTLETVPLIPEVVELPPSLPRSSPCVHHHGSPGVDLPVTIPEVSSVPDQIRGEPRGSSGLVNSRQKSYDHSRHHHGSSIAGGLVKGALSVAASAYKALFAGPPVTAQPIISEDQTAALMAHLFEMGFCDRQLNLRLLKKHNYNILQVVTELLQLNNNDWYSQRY
As to the kind of experiment: co-IP; lysates of control, LINC01592-knockdown and LINC01592-overexpressing cells (also with the mutant ΔLINC01592, Fig. S7G); which protein was precipitated not given.

Protein sequences, listed by entry. Tags and fused reporters are not part of them.
UniProt O75461: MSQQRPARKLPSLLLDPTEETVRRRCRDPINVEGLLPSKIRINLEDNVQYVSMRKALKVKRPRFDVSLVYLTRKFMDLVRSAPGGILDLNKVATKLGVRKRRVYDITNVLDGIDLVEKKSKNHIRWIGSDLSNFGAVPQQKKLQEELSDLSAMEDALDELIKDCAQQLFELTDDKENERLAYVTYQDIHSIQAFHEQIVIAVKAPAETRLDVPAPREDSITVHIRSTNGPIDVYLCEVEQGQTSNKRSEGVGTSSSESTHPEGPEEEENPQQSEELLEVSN

Test [2] has as its target T1, NBR1 (human (endogenous in Eca-109/PECC)). As to the kind of experiment: proximity ligation; Duolink In Situ Red kit Mouse/Rabbit; cells fixed in 4% paraformaldehyde, permeabilised with 0.1% Triton X-100; antibodies to E2F6 and NBR1 overnight at 4 °C; control, LINC01592-knockdown and LINC01592-overexpressing cells.

These are yes or no findings as the source states them, for the method shown. In cells and extracts the contact can be indirect. Some entries that bind do so weakly or less than the wild type.

Regarding E2F6 (from UniProt O75461 1-281), the binding result in test [1] and in test [2] was “binds” throughout.

(Values after article PMC10621170.)
